These results are taken from the supplement of paper PMC12819154, “High-throughput peptide-centric local stability assay extends protein–ligand identification to membrane proteins, tissues and bacteria” (Nature Structural & Molecular Biology, 2025).

By UniProt entry, the sequences of proteins in these tests, tags left out. Where a name states a change or a piece, a line headed by the entry shows the natural chain unless it says otherwise.
UniProt Q9NS91, whole entry: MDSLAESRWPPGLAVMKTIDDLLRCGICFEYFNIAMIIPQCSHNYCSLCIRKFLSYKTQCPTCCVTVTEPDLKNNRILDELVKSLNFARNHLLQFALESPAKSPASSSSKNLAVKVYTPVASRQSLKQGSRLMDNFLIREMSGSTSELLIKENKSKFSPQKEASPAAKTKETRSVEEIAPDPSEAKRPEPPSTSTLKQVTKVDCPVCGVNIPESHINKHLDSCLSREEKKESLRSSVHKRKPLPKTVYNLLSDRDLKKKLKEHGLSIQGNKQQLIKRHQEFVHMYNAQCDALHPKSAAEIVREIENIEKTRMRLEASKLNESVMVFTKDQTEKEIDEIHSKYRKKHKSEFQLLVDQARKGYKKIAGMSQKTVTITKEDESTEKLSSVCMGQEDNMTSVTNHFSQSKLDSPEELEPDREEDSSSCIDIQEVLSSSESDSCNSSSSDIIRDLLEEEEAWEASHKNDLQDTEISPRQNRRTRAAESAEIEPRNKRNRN
UniProt Q9NX70: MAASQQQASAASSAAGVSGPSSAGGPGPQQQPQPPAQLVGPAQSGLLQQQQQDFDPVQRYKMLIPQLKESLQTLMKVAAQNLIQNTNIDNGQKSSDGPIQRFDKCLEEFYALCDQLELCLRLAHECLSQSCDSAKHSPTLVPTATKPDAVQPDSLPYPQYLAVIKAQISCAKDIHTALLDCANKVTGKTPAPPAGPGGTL
UniProt Q9NXN4: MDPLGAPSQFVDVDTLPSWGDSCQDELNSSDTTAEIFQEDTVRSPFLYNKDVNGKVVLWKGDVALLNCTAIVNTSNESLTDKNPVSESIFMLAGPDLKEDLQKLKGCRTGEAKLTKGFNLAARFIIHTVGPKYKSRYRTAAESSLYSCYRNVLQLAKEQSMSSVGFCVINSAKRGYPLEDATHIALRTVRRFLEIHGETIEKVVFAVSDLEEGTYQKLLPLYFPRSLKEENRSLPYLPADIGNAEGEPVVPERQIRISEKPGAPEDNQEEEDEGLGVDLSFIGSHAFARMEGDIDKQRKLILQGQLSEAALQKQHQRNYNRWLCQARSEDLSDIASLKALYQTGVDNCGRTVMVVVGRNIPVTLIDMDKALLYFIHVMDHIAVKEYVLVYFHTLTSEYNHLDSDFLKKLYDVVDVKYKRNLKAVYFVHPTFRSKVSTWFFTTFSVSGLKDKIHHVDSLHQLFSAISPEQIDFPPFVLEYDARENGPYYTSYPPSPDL
UniProt Q9NW15: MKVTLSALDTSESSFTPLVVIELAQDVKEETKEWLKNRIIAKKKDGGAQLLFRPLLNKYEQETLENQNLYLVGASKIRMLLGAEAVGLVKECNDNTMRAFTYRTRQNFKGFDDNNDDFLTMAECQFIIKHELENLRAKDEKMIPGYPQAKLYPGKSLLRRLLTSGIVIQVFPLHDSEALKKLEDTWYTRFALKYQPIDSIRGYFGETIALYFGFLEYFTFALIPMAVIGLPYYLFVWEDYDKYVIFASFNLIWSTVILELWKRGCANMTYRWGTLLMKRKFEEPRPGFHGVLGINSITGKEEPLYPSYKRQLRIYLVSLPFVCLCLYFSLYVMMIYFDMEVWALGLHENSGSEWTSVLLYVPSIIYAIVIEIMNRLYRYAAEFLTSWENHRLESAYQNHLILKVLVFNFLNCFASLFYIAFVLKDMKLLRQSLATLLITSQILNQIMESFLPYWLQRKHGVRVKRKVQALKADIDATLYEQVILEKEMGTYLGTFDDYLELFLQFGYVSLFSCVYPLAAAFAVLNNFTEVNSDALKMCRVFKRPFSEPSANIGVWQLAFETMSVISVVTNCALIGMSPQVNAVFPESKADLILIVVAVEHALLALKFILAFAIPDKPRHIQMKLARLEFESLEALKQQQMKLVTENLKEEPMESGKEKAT
UniProt Q9NWA0: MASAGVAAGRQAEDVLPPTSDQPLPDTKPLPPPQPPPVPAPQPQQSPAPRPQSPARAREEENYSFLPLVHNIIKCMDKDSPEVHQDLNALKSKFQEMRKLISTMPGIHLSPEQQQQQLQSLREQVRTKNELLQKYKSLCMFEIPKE
UniProt Q9NUQ9: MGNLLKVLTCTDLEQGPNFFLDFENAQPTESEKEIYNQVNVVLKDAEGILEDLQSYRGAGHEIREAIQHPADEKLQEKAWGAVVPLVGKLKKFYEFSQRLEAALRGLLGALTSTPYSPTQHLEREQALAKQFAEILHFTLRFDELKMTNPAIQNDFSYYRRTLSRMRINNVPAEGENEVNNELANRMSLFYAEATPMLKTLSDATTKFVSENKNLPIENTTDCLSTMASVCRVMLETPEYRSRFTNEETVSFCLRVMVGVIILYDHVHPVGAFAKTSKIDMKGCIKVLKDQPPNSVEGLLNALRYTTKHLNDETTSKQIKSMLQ
UniProt Q9NQZ2: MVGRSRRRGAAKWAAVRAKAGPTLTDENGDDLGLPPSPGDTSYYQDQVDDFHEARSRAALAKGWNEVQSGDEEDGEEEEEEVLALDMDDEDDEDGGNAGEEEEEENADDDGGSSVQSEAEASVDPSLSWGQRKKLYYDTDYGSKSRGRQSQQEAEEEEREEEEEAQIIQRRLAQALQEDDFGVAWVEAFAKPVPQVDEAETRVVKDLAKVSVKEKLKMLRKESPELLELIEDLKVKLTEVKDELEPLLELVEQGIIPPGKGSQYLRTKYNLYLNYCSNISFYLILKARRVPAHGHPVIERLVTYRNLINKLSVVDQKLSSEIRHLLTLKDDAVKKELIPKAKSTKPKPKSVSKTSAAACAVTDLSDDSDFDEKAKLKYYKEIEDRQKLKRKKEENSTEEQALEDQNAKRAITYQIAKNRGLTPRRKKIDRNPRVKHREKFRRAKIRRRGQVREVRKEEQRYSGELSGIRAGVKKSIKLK
UniProt Q9NQU5: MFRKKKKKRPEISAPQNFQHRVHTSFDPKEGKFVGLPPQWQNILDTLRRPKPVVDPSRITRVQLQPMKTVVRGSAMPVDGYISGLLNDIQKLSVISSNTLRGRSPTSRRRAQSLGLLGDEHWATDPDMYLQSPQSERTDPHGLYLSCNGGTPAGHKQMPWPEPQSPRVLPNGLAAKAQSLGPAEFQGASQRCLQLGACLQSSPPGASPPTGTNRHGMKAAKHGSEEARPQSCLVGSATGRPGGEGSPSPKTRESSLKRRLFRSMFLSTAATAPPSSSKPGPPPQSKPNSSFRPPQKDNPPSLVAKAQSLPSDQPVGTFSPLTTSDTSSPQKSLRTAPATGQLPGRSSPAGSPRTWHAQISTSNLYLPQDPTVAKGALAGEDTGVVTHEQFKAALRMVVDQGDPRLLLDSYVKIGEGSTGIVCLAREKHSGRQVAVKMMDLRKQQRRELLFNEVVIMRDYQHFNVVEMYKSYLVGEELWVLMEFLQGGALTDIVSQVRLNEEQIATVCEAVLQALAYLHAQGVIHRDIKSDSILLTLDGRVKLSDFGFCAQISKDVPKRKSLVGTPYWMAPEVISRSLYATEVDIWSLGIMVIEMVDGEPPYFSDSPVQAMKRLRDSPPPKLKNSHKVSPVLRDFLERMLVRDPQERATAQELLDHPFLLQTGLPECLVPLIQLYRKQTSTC
UniProt Q9NY74: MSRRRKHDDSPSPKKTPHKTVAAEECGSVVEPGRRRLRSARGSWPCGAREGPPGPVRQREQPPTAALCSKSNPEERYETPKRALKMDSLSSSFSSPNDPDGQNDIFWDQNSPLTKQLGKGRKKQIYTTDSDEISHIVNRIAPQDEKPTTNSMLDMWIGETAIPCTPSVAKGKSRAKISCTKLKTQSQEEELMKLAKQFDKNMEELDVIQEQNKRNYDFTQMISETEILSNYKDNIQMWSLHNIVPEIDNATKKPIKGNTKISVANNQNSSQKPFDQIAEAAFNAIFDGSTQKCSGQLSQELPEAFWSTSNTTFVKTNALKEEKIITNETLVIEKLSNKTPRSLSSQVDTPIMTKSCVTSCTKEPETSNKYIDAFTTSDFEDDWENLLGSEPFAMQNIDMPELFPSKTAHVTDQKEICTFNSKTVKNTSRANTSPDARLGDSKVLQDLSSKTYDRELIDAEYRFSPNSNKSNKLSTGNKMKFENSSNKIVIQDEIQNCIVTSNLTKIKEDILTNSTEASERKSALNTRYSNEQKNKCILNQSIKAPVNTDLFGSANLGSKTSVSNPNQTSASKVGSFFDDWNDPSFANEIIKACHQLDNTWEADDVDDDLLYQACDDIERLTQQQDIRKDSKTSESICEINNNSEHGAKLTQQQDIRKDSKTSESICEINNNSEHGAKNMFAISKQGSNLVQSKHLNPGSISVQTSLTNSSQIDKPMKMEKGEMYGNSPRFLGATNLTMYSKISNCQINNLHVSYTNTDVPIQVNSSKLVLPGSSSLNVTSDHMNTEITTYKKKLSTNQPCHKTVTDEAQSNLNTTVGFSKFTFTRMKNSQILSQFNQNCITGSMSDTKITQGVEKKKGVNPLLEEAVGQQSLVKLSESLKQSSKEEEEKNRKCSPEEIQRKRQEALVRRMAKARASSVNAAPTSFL
UniProt Q9NVP2, whole entry: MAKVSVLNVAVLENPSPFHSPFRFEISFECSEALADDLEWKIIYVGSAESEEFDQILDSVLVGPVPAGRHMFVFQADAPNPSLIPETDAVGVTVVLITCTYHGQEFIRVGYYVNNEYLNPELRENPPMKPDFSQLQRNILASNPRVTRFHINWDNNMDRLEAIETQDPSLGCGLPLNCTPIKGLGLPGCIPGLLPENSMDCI
UniProt Q9NUY8: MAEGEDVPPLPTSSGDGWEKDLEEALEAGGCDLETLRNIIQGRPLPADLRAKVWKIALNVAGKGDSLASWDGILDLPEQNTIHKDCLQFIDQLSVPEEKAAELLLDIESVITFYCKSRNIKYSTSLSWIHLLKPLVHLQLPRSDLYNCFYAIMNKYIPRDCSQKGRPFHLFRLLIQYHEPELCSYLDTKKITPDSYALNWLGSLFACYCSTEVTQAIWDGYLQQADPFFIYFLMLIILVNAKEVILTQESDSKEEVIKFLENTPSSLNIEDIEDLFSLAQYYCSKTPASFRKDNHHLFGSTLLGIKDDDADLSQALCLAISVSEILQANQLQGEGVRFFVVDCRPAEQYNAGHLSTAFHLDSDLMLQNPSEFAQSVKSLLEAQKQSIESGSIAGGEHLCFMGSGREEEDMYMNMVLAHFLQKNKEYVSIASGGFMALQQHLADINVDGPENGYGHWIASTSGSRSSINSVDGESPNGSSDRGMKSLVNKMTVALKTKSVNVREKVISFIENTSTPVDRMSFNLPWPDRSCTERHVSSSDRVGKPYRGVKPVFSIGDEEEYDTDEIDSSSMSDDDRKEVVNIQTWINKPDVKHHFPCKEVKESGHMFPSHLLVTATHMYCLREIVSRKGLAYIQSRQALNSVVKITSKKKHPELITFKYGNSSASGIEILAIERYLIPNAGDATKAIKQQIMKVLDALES
UniProt Q9NWM8: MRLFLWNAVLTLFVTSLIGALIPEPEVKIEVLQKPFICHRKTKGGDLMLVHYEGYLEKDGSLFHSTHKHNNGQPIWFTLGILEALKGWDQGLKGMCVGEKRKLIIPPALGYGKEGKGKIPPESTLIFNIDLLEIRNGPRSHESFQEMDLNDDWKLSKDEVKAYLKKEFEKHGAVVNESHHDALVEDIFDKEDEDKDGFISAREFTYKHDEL
UniProt Q9NVJ2: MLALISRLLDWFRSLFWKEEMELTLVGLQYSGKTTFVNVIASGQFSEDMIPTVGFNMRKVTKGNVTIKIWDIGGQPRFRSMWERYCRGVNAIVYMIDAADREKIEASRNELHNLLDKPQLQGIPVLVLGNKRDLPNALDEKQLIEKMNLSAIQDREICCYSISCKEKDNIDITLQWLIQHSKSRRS
UniProt Q9NX08, whole entry: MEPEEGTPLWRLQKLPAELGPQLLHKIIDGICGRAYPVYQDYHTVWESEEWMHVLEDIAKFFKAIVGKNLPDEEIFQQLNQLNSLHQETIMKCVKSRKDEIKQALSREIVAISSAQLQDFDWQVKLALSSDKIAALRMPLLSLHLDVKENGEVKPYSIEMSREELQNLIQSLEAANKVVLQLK
UniProt Q9NV56, whole entry: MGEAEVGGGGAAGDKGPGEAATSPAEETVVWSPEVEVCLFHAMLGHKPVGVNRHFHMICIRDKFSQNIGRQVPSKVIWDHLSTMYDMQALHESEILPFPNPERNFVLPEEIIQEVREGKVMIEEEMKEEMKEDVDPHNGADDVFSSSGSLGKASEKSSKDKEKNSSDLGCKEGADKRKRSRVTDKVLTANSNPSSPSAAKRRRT
UniProt Q9NWU2, whole entry: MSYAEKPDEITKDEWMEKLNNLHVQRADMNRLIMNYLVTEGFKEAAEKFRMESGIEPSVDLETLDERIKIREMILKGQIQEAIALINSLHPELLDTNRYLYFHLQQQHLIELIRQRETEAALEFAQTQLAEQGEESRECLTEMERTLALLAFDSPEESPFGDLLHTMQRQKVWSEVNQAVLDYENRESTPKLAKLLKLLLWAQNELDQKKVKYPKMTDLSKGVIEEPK
UniProt Q9NUM4, whole entry: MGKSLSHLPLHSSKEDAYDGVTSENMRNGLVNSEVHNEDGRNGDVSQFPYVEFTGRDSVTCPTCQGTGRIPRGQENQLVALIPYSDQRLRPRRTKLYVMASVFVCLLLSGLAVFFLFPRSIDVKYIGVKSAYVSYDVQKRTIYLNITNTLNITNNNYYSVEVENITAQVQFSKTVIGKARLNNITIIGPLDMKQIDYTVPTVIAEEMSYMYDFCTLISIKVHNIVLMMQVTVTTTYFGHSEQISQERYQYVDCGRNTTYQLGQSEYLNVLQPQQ

The list shows a part of the results. Most values lie at the level of the controls, where differences are scatter.

Compound in this assay: CN[C@@H]1C[C@H]2O[C@@](C)([C@@H]1OC)n1c3ccccc3c3c4c(c5c6ccccc6n2c5c31)C(=O)NC4 [staurosporine]
As to the kind of experiment: log2 fold change of tryptic peptide abundance, ligand vs vehicle (limited proteolysis) (log2 ratio); higher = more trypsin-susceptible (destabilized). Particulars: ligand concentration: 20 uM; sample: K562 cleared lysate; digestion: 4 min, 22 C (HT-PELSA RT4min, Orbitrap Astral).
Take “BRWD1 (peptide sequence: SDSVVLVSQSR, peptide start residue: 784) (UniProt Q9NSI6)”: the log2 fold change is 0.356.

As for “CTNNBIP1 (peptide sequence: VLLMLRK, peptide start residue: 22) (UniProt Q9NSA3)”, the log2 fold change was -0.135.

In the case of “UniProt Q9NX74 (peptide sequence: MCLLEWCR, peptide start residue: 372)”, the log2 fold change was -0.183.

Take “RAD18 (peptide sequence: SVEEIAPDPSEAKRPEPPSTSTLK, peptide start residue: 174) (UniProt Q9NS91)”: the log2 fold change was -0.224.

“DPP3 (peptide sequence: SGETWDSK, peptide start residue: 491) (UniProt Q9NY33)”: the log2 fold change is -0.241.

For the target “MED29 (peptide sequence: ESLQTLMK, peptide start residue: 69) (UniProt Q9NX70)”, the log2 fold change was -0.149.

On to “WDR70 (peptide sequence: QNEDIEPTSSR, peptide start residue: 76) (UniProt Q9NW82)”, for which the log2 fold change is -0.15.

Turning to “GDAP2 (peptide sequence: MEGDIDKQR, peptide start residue: 290) (UniProt Q9NXN4)”, the log2 fold change amounted to 0.527.

“C14orf119 (peptide sequence: FLEDLVAK, peptide start residue: 57) (UniProt Q9NWQ9)”: the log2 fold change stood at 0.171.

Regarding “UniProt Q9NVA2 (peptide sequence: IHACLYFIAPTGHSLK, peptide start residue: 147)”, the log2 fold change is -0.425.

With “IARS2 (peptide sequence: EAQNLSAMEIR, peptide start residue: 171) (UniProt Q9NSE4)”, the log2 fold change was determined as 0.45.

As to “ANO10 (peptide sequence: LVTENLKEEPMESGKEK, peptide start residue: 642) (UniProt Q9NW15)”, the log2 fold change was 0.0725.

As to “MBIP (peptide sequence: RISAFIER, peptide start residue: 162) (UniProt Q9NS73)”, the log2 fold change is -0.78.

In the case of “GPATCH2 (peptide sequence: GGFAETGDHSR, peptide start residue: 45) (UniProt Q9NW75)”, the log2 fold change was -0.839.

Consider “MED9 (peptide sequence: AREEENYSFLPLVHNIIK, peptide start residue: 57) (UniProt Q9NWA0)”, for which the log2 fold change turned out to be 0.163.

“UniProt Q9NWL6 (peptide sequence: SDVNYQCLFSAHVLHLR, peptide start residue: 41)”: the log2 fold change was 0.288.

Consider “FAM49B (peptide sequence: EAIQHPADEKLQEK, peptide start residue: 65) (UniProt Q9NUQ9)”, for which the log2 fold change was -0.111.

“PHPT1 (peptide sequence: IHVYGYSMAYGPAQHAISTEK, peptide start residue: 88) (UniProt Q9NRX4)”: the log2 fold change is -0.231.

For “UTP3 (peptide sequence: VPAHGHPVIER, peptide start residue: 290) (UniProt Q9NQZ2)”, the log2 fold change was 0.553.

On to “PAK6 (peptide sequence: RELLFNEVVIMR, peptide start residue: 360) (UniProt Q9NQU5)”, for which the log2 fold change is -0.375.

Turning to “GPATCH2L (peptide sequence: ATDATTATFFK, peptide start residue: 462) (UniProt Q9NWQ4)”, the log2 fold change was -0.326.

For “ETAA1 (peptide sequence: EQPPTAALCSK, peptide start residue: 60) (UniProt Q9NY74)”, the log2 fold change was -0.397.

In the case of “ASF1B (peptide sequence: ENPPMKPDFSQLQR, peptide start residue: 124) (UniProt Q9NVP2)”, the log2 fold change is -0.151.

Consider “TBC1D23 (peptide sequence: MSFNLPWPDRSCTER, peptide start residue: 519) (UniProt Q9NUY8)”, for which the log2 fold change is -0.428.

Regarding “EXOSC5 (peptide sequence: AENGTGSSPR, peptide start residue: 13) (UniProt Q9NQT4)”, the log2 fold change is -0.123.

For “FKBP14 (peptide sequence: SHESFQEMDLNDDWK, peptide start residue: 140) (UniProt Q9NWM8)”, the log2 fold change was -0.234.

With “AURKAIP1 (peptide sequence: EAPEGWQTPK, peptide start residue: 184) (UniProt Q9NWT8)”, the log2 fold change came to 0.0883.

On to “MRPL22 (peptide sequence: EYIQQLR, peptide start residue: 192) (UniProt Q9NWU5)”, for which the log2 fold change was -0.195.

“UniProt Q9NVJ2 (peptide sequence: GVNAIVYMIDAADREK, peptide start residue: 88)”: the log2 fold change turned out to be 0.445.

As for “COMMD8 (peptide sequence: MPLLSLHLDVK, peptide start residue: 138) (UniProt Q9NX08)”, the log2 fold change was -0.0125.

Turning to “TUBA8 (peptide sequence: NLDIERPTYTNLNR, peptide start residue: 216) (UniProt Q9NY65)”, the log2 fold change is -0.0996.

Turning to “UniProt Q9NV56 (peptide sequence: NSSDLGCKEGADKR, peptide start residue: 164)”, the log2 fold change is -0.336.

As for “SIRT3 (peptide sequence: LSLQDVAELIR, peptide start residue: 123) (UniProt Q9NTG7)”, the log2 fold change was -0.199.

In the case of “UniProt Q9NWU2 (peptide sequence: LIMNYLVTEGFKEAAEKFR, peptide start residue: 32)”, the log2 fold change was found to be 0.403.

On to “BAZ1A (peptide sequence: HSHGPLQADVFVELLSPR, peptide start residue: 1338) (UniProt Q9NRL2)”, for which the log2 fold change is -0.318.

For “TMEM106B (peptide sequence: NGLVNSEVHNEDGR, peptide start residue: 28) (UniProt Q9NUM4)”, the log2 fold change was -0.114.
